PubChem BioAssay AID504834 (National Center for Advancing Translational Sciences (NCATS), 2011)
Screen size: about 320,000 compounds; about 22,000 (6.9%) were called active. Inconclusive results, whose numbers are uncertain, are shown with a selection of clear calls. The call rests on the fitted dose curve; in most records, active means well fitted inhibition curve with a large enough effect; inconclusive means small, poorly fitted or top-dose-only effect, or another doubt; inactive means no such curve, though single readings can be large or run the other way. Potencies beside an inconclusive call are fits to weak or partial responses and may not hold up.

Test: Primary qHTS for delayed death inhibitors of the malarial parasite plastid, 96 hour incubation
Details: P. falciparum luciferase reporter growth; series mostly up to 28.7 µM
Method in brief: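 Infected RBCs, 2% Hct / 0.05% parasitemia final; luciferase-reporter P. falciparum; cpd 96 h, 37 C, 5% CO2; luciferase detection reagent; luminescence.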
Potency means the concentration at half of the fitted maximal effect.

SMILES | Potency
CCCCc1cc(=O)oc2c(C)c(OCC(=O)NCCN3CCOCC3)ccc12 | inconclusive: 9.28 µM [inhibitor, single point]
CCc1nc(Nc2ccc(F)cc2)c2oc3ccccc3c2n1 | inconclusive: 18.5 µM [inhibitor, single point]
CCCCn1c(N)c(N(CCOC)C(=O)C(C)Oc2ccc(Cl)cc2)c(=O)[nH]c1=O (centres undefined) | inactive
Cc1cc(C)n2nc(C(=O)N3CCOCC3)nc2n1 | inconclusive: 14.7 µM [inhibitor, partial curve, poor fit]
COc1ccc(NC(=O)CN(C)C(=O)c2csc3c2CCCC3)cc1 | inactive
CCCCn1c(N)c(N(CCOC)C(=O)COc2ccc(OCC)cc2)c(=O)[nH]c1=O | inconclusive: 18.5 µM [inhibitor, single point]
Cc1[nH]c2nc3ccccc3n2c(=O)c1CCC(C)C | inconclusive: 10.4 µM [inhibitor, partial curve]
CCCCOc1ccc(C(=O)C(CN2CCOCC2)c2ccccc2)cc1 (centres undefined) | inconclusive: 3.29 µM [inhibitor, single point]
COc1ccc(OC)c(NC(=O)CSc2nc(N3CCOCC3)nc(N3CCOCC3)n2)c1 | inconclusive: 18.5 µM [inhibitor, single point]
COC(=O)c1c(NC(=O)CN2CCC3(O)CCCCC3C2c2ccc(F)cc2)sc(C)c1C (centres undefined) | inconclusive: 10.4 µM [inhibitor, partial curve, poor fit]
CC(C)OCCCNS(=O)(=O)c1ccc2c(c1)OCCO2 | inconclusive: 16.5 µM [inhibitor, single point]
CCOc1ccc(C(=O)NCC(=O)N2CCCCCCC2)cc1 | inconclusive: 11.7 µM [inhibitor, partial curve, poor fit]
O=C1c2sc3nc4c(c(=O)n3c2C(=O)N1c1ccccc1)CCC4 | inconclusive: 2.33 µM [inhibitor, full curve]
CCOC(=O)C1(Cc2cccc(Cl)c2)CCCN(C(=O)c2c(CC)noc2C)C1 (centres undefined) | inconclusive: 18.5 µM [inhibitor, single point]
CC(C)CCn1c(=O)[nH]c2ccccc21 | inactive
CC1(C)CC(NC2C3CC4CC(C3)CC2C4)CC(C)(C)N1 (centres undefined) | inconclusive: 6.57 µM [inhibitor, partial curve]
Cn1c(SCCOc2ccc(Cl)cc2)nnc1-c1ccncc1 | inconclusive: 10.4 µM [inhibitor, single point]
CCOc1ccccc1NC(=O)C(=O)N/N=C/c1ccc([N+](=O)[O-])cc1 | inactive
N#CC1(NC(=O)CSc2nnc(Cc3ccccc3)o2)CCCCC1 | inconclusive: 10.4 µM [inhibitor, partial curve, poor fit]

A few values from the list.
COc1ccc(OC)c(NC(=O)CSc2nc(N3CCOCC3)nc(N3CCOCC3)n2)c1 – Potency: inconclusive: 18.5 µM [inhibitor, single point]
CCCCn1c(N)c(N(CCOC)C(=O)C(C)Oc2ccc(Cl)cc2)c(=O)[nH]c1=O (centres undefined) – Potency: inactive
